The test is described as follows: qHTS Assay to Find Inhibitors of Chronic Active B-Cell Receptor Signaling. Particulars: ABC-DLBCL IkBa-CBG/CBR reporter, luminescence ratio (green luciferase fused to IkBa over red control in TMD8 lymphoma cells), 4 h. In outline:
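TMD8 ABC-DLBCL cells carrying doxycycline-inducible green luciferase fused to IkappaBalpha plus unfused red luciferase were exposed to compounds (up to 46 uM) for 4 hrs at 37C. Activity came from the overlap-corrected green/red luminescence ratio.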
(qHTS replaces the single test concentration by a dilution series.)

[1] abbreviates: measured here: CBR red luminescence, cell number.
The mark [2] stands for this setting: measured here: IkBa-CBG green luminescence.

Each structure is given as a SMILES string. Some of the results follow. The main result of the screen is listed elsewhere. These columns were measured beside it and carry no call. Compounds called inactive in the main read-out are mostly missing here. Potencies come from curve fits of mixed quality, noted in brackets.

As usually defined, the AC50 is the concentration giving half of the maximal activity seen.

Consider `CCOc1ccccc1OCCC(=O)Nc1ccc(F)c(Cl)c1`, for which, under setting [1], the AC50 is 6.51 µM [rising, single point].

With `CCCCn1c(C2CCCCC2)nc2cc3[nH]c(=O)c(C(C)C)nc3cc21`, the AC50 under setting [1] was 7.08 µM [falling, partial curve, poor fit]. For the molecule `Nn1cnc2scc(-c3ccco3)c2c1=O`, the AC50 under setting [1] was 3.55 µM [falling, full curve]. In the case of `COc1cc(OC)cc(C(=O)Nc2c(F)cccc2F)c1`, under setting [1], the AC50 was 10.3 µM [falling, partial curve, poor fit]. The same measure, in the same setting: with `Cc1ccc(C(=O)/C=C/c2ccc(F)cc2)o1` the figure was 20.6 µM [falling, single point]; with `CCN(CC)C(=O)C1CCCN(Cc2ccc3c(c2)OCO3)C1` (stereo not given), 6.51 µM [rising, partial curve, poor fit]; with `Cc1cccc(C(=O)Nc2cccc(NC(=O)c3ccccc3)c2)c1`, 35.5 µM [falling, single point]. As for `C=CCOC(=O)C1=C[C@@H](c2csc3ccccc23)C[C@@H](OCc2ccc(CO)cc2)O1`, the AC50 under setting [1] is 35.5 µM [falling, single point].

Regarding `C/C(=N\NC(=O)c1ccco1)c1ccc(NC(=O)c2ccccc2)cc1`, the AC50 under setting [1] was 7.08 µM [falling, partial curve]. Still for that read-out and setting: the same measure for `CN1C(=O)Cc2cc(S(=O)(=O)N3CCN(c4cccc(Cl)c4)CC3)ccc21`: 5.01 µM [falling, full curve]; for `Cc1cc(/C=N/NC(=O)c2ccccc2F)c(C)n1-c1ccccc1`: 12.6 µM [falling, partial curve].

For the molecule `CC(C)CNC(=S)NC1CCCC1`, the AC50 under setting [1] was 2.59 µM [rising, partial curve]. As to `CC1Cc2ccccc2N1C(=S)NC(=O)c1ccc(Cl)cc1Cl` (stereo not given), the AC50 under setting [1] is 29.1 µM [rising, single point]. On to `COC(=O)c1ccccc1NC(=O)C12CCC(C)(C(=O)O1)C2(C)C` (stereo not given), for which the AC50 under setting [1] is 4.11 µM [rising, partial curve, poor fit].

As for `O=C(Nc1cccnc1)Nc1ccc2c(c1)OCO2`, under setting [1], the AC50 is 29.1 µM [falling, single point]. The same measure, in the same setting: the same measure for `COc1ccccc1CNC(=O)CSc1ccc(-c2cccc([N+](=O)[O-])c2)nn1`: 0.562 µM [rising, full curve, poor fit]; for `Cc1ccc(S(=O)(=O)N2CCCCC2)cc1NC(=O)c1ccccc1Cl`: 14.6 µM [rising, partial curve, poor fit]; for `C=CCOc1ccc(CNC(C)(C)C)cc1OC`: 6.31 µM [rising, single point].

As for `Cc1ccc(N2C(=O)[C@@H]3[C@H](C2=O)C2CCCN2[C@@H]3C(=O)c2ccccc2)cc1` (stereo not given in full), under setting [1], the AC50 is 11.2 µM [falling, partial curve, poor fit].

Regarding `Cc1ccc(Nc2ncccc2C(N)=O)cc1`, under setting [1], the AC50 is 16.4 µM [rising, single point]. The same measure, in the same setting: the same measure for `CCOc1ccccc1Nc1cc(C)nc2nnnn12`: 2.82 µM [falling, full curve]; for `COc1ccccc1OCC(=O)Nc1ccc(O)cc1C(=O)O`: 2.59 µM [falling, partial curve]. Still for that read-out and setting: the same measure for `C=CCNC(=O)/C(C#N)=C/c1c(C)nn(-c2ccccc2)c1Cl`: 8.2 µM [falling, partial curve, poor fit]; for `Cc1cc(C(=O)CSc2nnnn2-c2ccc(Cl)cc2)c(C)n1CC1CCCO1` (stereo not given): 0.731 µM [rising, full curve, poor fit]. On the same count and under the same terms, the same measure for `Cc1cccc(C(=O)Nc2nnc(-c3cccnc3)o2)c1`: 25.1 µM [falling, single point]. Turning to `N/C(=N\OC(=O)/C=C/c1ccccc1)c1ccncc1`, the AC50 under setting [1] was 7.08 µM [falling, partial curve].

On to `Cc1ccc(-c2nnc(Nc3ccc(C(N)=O)cc3)c3ccccc23)cc1S(=O)(=O)NCC1CCCO1` (stereo not given), for which, under setting [1], the AC50 was 10.3 µM [falling, partial curve, poor fit].

For `CC1CCc2nc(NC(=O)Nc3ccc4c(c3)OCO4)sc2C1` (stereo not given), the AC50 under setting [1] is 0.13 µM [falling, full curve, poor fit]. Take `COc1ccc(N2CCN(C(=O)COC(=O)c3cnccn3)CC2)cc1`: the AC50 under setting [1] is 0.461 µM [rising, full curve, poor fit]. The same measure, in the same setting: the same measure for `Cc1nnc(SCC(=O)Nc2ccccc2N2CCOCC2)s1`: 4.11 µM [rising, single point]; for `CC(C)(C)C(=O)Oc1cccc(Nc2ncnc3ccccc23)c1`: 12.6 µM [falling, partial curve, poor fit].

As for `COc1cc(C(CC(=O)Nc2ccc(C)cn2)N2Cc3ccccc3C2=O)cc(OC)c1OC` (stereo not given), the AC50 under setting [1] was 0.355 µM [rising, full curve, poor fit]. On the same count and under the same terms, with `CCOc1ccc2nc(COC(=O)c3ccncc3)c(C(=O)c3ccccc3)[n+]([O-])c2c1` the figure was 15.8 µM [rising, partial curve, poor fit]. Take `COc1cccc(-n2nc(-c3ccnn3-c3ccc(C)cc3)c(=O)n(C)c2=O)c1`: the AC50 under setting [1] is 1.46 µM [falling, full curve, poor fit]. Turning to `O=C(NCc1ccccc1)c1cccnc1Sc1ccccc1`, under setting [1], the AC50 was 6.31 µM [falling, single point].

With `CC(=O)Nc1cc2nc(C)n(Cc3ccccc3[N+](=O)[O-])c2nc1C`, the AC50 under setting [1] is 6.31 µM [rising, single point].

Consider `Cn1c(=O)c2c(ncn2CC(=O)N/N=C/C=C/c2ccccc2[N+](=O)[O-])n(C)c1=O`, for which the AC50 under setting [1] is 5.62 µM [rising, single point].

As for `N#C/C(=C(/O)c1ccc([N+](=O)[O-])s1)c1nc2ccccc2[nH]1`, under setting [1], the AC50 was 1.26 µM [falling, full curve]. As to `NC(=O)c1ccc(Cn2c(C(=O)c3cc(Cl)c(N)c(Cl)c3)c3ccccc3[n+]2[O-])cc1`, the AC50 is, setting by setting: under setting [1], 29.1 µM [falling, single point]; under setting [2], 18.4 µM [falling, single point]. Consider `COC(=O)c1c(NC(=O)COC(=O)[C@@H](NS(=O)(=O)c2ccccc2)C(C)C)sc2c1CCC2`, for which the AC50 under setting [1] was 20.6 µM [falling, partial curve, poor fit]. Still for that read-out and setting: the same measure for `O=C(COC(=O)c1ccc(NS(=O)(=O)c2cccs2)cc1)Nc1nc2c(F)c(F)c(F)cc2s1`: 5.01 µM [falling, partial curve]; for `Cc1cc(C)cc(C(=O)N2CCN(c3ccccn3)CC2)c1`: 0.447 µM [rising, full curve, poor fit]; for `c1ccc2sc(Sc3ncnc4sccc34)nc2c1`: 6.51 µM [falling, partial curve]. For `Cc1cccc(OCC2=N/C(=C\N(C)C)C(=O)O2)c1`, the AC50 under setting [1] was 15.8 µM [rising, partial curve]. `Cc1c(NC(=O)c2cnn3c(C(F)(F)F)cc(-c4ccco4)nc23)c(=O)n(-c2ccccc2)n1C`: the AC50 under setting [1] is 20 µM [rising, partial curve, poor fit]. The same measure, in the same setting: with `O=C(Nc1cccc(S(=O)(=O)N2CCCCC2)c1)c1cc(=O)[nH]c2ccccc12` the figure was 0.103 µM [rising, full curve, poor fit]. Turning to `Cc1cc2ccc(C)c(C)c2nc1SCC#N`, the half-maximal activity concentration (AC50) under setting [1] is 35.5 µM [rising, single point]. On the same count and under the same terms, the same measure for `CCOC(=O)c1nnc(-c2ccc(C)cc2)nc1Sc1ccc(Cl)cc1`: 13 µM [falling, single point]; for `O=C(NC1CCCCC1)C(c1ccc(Cl)cc1)N(C(=O)c1cnccn1)c1ccc2c(c1)OCO2` (stereo not given): 32.6 µM [falling, single point].

`COc1ccc(NC(=O)/C(C#N)=C\c2ccc(-c3cccc(C(=O)O)c3C)o2)cc1`: under setting [1], the AC50 was 15.8 µM [falling, single point]. Still for that read-out and setting: the same measure for `O=[N+]([O-])c1cccc(-c2noc(-c3ccco3)n2)c1`: 3.98 µM [rising, partial curve, poor fit]; for `O=C(O)C(c1ccccc1)N1C(=O)/C(=C\c2ccc(-c3ccccc3Cl)o2)SC1=S` (stereo not given): 20 µM [falling, single point]; for `COc1ccc(Nc2nc(-c3cccnc3)cs2)c(OC)c1`: 0.631 µM [rising, full curve]. As for `Cc1ccc(OCCn2c(C)c(/C=N/n3cnnc3)c3ccccc32)cc1`, the AC50 reads like this: under setting [1], 12.6 µM [rising, partial curve, poor fit]; under setting [2], 14.1 µM [falling, partial curve, poor fit]. As for `COc1ccc(OCC(=O)c2c(O)c3ccccc3oc2=O)cc1`, the concentration at half-maximal activity (AC50) under setting [1] is 5.8 µM [falling, partial curve, poor fit]. Regarding `COc1ccc(NC(=O)C2CCCN(S(C)(=O)=O)C2)cc1Cl` (stereo not given), the AC50 under setting [1] was 0.0891 µM [rising, full curve, poor fit]. Same read-out and setting: with `COC/C=C/C1=CC2=CC(=O)C(C)(OC(=O)c3cnc4ccccc4n3)C(=O)C2=CN1CCCCO` (stereo not given) the figure was 3.98 µM [rising, full curve, poor fit].

For the molecule `OCC(O)CNC(=S)NC1CCCCC1` (stereo not given), under setting [1], the AC50 was 31.6 µM [rising, single point].

As to `COC(=O)C1=C(C)N=C2SC(C)C(=O)N2C1c1cccc(F)c1` (stereo not given), the AC50 under setting [1] was 35.5 µM [falling, single point].

For the molecule `CCN(CC)S(=O)(=O)c1ccc(C)c(NC(=O)COC(=O)CNC(=O)c2ccc(C(C)(C)C)cc2)c1`, the AC50 under setting [1] was 25.9 µM [falling, single point]. With `Cc1ccccc1Cn1cc(S(=O)(=O)CC(=O)Nc2nccs2)c2ccccc21`, under setting [1], the half-maximal activity concentration (AC50) is 16.4 µM [falling, single point]. Still for that read-out and setting: with `Cc1cc(SCc2ccc([N+](=O)[O-])cc2)nc(=O)[nH]1` the figure was 20 µM [rising, single point]. The same measure, in the same setting: the same measure for `COc1ccc2oc(=O)c(/C(C)=N/NC(=O)c3ccncc3)cc2c1`: 20.6 µM [falling, partial curve, poor fit].
